In PMC9050680:
Results are given in words; binding and its absence hold for the method and conditions named. In cells and extracts the contact can be indirect. Some binding calls cover weakened binding; strength is not graded here.

By UniProt entry, the sequences of proteins in these tests, tags left out.
UniProt P54845: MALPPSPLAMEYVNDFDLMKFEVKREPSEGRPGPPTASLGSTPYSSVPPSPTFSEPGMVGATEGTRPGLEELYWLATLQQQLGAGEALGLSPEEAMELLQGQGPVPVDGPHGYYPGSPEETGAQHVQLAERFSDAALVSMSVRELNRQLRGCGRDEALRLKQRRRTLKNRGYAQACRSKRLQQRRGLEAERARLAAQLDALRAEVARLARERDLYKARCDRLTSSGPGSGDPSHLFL
UniProt O43186: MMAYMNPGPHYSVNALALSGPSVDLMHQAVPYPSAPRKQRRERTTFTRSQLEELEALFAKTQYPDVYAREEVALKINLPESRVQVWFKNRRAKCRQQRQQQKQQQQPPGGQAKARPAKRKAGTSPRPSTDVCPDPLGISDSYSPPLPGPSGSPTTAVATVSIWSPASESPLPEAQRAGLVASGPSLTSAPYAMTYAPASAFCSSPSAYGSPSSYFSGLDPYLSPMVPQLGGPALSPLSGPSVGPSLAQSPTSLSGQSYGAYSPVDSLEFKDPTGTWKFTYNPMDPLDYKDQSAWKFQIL

How the values were obtained:
[1] = target: human NRL with mCherry or EGFP fused to the N-terminus (near the activation domain) (human) (UniProt P54845); assay: FRET or BRET; CM-FRET: confocal microscopy, acceptor photobleaching (APB) on HEK293T cells fixed with 2% paraformaldehyde; donor EGFP, acceptor mCherry; compared with mCh + eG
[2] = target: human NRL with mCherry or EGFP fused to the N-terminus (near the activation domain) (human) (UniProt P54845); assay: FRET or BRET; CM-FRET: confocal microscopy, sensitized emission, live transiently transfected HEK293T cells at 37 °C, 5% CO2; donor EGFP, acceptor mCherry; compared with mCh + eG
[3] = target: human NRL with mCherry or EGFP fused to the N-terminus (near the activation domain) (human) (UniProt P54845); assay: FRET or BRET; FC-FRET: flow cytometry, sensitized emission (three-cube N_FRET, apparent FRET efficiency) in live transiently cotransfected HEK293T cells suspended in PBS; donor EGFP, acceptor mCherry; population means and dependence on expression level compared with unlinked mCh + eG

Measured: binding

human CRX with mCherry or EGFP fused to the N-terminus (near the homeodomain) (from UniProt O43186 1-299)
binds: [1] | [2] | [3]
